# Some of the results follow.
# Amino acid sequences for entries named in this document (tags omitted). A change or cut given only in a name is not applied to a line headed by its entry.
# UniProt Q8N680: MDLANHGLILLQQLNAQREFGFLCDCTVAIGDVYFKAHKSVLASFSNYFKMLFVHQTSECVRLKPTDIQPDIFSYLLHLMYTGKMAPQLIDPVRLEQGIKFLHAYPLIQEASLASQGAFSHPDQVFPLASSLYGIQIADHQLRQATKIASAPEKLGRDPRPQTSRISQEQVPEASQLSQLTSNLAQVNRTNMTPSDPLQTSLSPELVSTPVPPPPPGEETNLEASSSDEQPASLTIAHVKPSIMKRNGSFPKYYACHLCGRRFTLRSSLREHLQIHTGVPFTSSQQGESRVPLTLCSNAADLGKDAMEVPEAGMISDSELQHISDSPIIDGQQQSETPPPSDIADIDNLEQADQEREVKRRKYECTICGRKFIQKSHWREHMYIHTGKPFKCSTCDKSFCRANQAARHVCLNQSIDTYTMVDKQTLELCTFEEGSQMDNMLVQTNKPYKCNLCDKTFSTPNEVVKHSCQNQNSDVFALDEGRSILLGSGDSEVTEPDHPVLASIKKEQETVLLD
# UniProt O60315: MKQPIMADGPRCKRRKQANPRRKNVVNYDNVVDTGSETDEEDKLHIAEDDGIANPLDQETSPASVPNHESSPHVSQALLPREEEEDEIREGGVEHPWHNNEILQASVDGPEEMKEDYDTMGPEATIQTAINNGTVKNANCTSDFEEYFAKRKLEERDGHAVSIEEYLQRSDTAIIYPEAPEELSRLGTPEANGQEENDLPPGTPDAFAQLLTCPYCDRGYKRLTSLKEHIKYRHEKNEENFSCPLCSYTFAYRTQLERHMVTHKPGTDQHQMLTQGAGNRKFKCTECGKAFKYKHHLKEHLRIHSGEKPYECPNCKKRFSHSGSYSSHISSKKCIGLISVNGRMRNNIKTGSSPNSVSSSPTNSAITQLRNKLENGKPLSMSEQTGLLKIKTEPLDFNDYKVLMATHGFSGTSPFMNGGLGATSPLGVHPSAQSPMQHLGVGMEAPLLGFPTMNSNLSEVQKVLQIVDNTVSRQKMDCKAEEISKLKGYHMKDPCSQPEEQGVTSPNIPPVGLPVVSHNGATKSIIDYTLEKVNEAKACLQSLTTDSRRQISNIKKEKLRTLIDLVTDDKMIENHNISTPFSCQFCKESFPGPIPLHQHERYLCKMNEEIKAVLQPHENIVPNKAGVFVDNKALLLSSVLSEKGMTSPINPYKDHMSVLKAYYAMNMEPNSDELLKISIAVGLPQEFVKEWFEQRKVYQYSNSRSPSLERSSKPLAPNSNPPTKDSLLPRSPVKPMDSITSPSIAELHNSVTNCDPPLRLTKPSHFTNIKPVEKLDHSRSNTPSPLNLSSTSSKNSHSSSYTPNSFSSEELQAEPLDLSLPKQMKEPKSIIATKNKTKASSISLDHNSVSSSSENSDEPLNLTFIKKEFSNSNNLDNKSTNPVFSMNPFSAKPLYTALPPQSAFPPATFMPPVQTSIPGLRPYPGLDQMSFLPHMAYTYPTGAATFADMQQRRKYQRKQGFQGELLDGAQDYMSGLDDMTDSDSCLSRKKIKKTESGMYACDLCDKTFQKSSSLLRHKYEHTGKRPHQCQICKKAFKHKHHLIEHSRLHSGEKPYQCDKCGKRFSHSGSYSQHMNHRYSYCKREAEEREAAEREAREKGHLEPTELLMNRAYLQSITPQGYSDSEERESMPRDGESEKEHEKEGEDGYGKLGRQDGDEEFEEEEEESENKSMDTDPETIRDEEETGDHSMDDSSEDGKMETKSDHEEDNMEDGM
# UniProt P62258: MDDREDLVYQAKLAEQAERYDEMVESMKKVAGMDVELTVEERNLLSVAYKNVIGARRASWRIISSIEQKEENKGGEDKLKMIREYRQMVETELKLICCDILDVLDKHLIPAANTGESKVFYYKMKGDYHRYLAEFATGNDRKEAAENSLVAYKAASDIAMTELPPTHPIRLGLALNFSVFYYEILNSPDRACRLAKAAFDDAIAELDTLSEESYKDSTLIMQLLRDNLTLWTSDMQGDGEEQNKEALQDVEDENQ
# UniProt Q8IUH4: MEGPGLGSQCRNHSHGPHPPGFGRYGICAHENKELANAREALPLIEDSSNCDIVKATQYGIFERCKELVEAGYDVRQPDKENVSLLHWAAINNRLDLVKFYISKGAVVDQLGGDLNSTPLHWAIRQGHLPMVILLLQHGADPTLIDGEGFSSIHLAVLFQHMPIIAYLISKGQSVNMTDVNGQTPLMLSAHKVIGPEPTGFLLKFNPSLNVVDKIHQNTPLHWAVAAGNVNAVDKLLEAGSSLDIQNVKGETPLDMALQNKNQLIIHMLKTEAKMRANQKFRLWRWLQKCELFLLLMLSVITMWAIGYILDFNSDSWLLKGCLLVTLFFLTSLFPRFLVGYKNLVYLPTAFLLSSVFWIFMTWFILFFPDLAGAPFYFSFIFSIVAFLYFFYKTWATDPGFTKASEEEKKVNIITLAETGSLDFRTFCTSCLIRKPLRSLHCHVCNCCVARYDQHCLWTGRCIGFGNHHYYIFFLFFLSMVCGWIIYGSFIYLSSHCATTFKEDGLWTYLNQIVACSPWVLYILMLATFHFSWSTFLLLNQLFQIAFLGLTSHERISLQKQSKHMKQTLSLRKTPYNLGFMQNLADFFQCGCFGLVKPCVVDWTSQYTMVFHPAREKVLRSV
# UniProt Q9BW85: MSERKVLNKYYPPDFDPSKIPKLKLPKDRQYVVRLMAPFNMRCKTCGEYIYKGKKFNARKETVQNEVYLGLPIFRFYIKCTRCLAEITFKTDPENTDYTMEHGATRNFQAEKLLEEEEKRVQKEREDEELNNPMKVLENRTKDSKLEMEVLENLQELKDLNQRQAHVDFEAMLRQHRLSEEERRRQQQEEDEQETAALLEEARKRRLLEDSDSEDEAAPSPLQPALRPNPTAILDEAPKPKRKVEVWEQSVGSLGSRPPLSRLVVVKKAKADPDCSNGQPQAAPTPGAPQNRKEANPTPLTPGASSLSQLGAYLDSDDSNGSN
# UniProt Q6PJT7: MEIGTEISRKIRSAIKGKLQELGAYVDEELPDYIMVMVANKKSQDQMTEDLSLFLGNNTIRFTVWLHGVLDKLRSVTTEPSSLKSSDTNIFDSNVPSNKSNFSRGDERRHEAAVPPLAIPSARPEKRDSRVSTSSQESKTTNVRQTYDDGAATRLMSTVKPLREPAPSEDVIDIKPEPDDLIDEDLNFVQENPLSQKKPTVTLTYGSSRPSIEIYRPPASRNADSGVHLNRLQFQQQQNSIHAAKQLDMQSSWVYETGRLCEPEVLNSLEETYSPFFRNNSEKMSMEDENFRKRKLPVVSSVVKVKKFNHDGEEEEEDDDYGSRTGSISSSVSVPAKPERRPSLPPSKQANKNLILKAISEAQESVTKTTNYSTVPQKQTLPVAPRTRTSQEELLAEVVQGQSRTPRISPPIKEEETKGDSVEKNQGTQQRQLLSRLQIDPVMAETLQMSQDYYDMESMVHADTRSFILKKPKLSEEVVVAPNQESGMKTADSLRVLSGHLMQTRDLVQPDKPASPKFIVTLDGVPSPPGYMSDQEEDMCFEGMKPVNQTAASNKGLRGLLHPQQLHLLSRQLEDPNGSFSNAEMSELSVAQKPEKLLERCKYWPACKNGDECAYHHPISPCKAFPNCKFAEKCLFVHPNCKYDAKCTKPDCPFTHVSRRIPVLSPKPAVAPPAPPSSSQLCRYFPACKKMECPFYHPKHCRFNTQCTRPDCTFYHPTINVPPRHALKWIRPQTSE
# UniProt Q9C0E2: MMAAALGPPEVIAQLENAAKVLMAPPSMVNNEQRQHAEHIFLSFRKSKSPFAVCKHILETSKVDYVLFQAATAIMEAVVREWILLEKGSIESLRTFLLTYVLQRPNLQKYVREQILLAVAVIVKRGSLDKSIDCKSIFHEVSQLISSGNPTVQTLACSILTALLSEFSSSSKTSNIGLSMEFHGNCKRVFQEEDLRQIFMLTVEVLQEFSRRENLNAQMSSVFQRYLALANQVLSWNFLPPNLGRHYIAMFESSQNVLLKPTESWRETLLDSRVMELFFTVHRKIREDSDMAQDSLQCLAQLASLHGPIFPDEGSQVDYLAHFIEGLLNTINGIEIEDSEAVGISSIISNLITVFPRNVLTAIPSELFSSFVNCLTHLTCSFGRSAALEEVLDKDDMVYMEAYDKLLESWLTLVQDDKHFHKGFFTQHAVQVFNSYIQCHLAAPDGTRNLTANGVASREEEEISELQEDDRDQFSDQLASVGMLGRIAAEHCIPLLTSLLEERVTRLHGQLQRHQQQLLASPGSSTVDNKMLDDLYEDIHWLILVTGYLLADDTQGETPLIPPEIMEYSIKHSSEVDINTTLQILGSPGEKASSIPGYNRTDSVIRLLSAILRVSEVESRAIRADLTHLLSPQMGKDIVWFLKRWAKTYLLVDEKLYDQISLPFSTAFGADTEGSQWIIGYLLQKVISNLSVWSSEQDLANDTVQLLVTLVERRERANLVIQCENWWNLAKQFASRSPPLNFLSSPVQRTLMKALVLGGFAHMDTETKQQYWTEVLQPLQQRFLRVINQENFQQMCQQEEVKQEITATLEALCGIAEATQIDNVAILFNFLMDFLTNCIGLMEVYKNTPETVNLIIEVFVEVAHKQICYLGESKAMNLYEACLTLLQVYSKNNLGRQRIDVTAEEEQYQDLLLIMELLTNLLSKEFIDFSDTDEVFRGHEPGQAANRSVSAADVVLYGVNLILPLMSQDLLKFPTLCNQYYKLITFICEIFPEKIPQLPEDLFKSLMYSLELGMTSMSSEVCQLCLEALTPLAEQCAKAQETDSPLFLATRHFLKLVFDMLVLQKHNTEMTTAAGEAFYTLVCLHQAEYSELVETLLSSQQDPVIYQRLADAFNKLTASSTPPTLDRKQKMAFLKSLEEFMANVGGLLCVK
# UniProt Q8IWR0: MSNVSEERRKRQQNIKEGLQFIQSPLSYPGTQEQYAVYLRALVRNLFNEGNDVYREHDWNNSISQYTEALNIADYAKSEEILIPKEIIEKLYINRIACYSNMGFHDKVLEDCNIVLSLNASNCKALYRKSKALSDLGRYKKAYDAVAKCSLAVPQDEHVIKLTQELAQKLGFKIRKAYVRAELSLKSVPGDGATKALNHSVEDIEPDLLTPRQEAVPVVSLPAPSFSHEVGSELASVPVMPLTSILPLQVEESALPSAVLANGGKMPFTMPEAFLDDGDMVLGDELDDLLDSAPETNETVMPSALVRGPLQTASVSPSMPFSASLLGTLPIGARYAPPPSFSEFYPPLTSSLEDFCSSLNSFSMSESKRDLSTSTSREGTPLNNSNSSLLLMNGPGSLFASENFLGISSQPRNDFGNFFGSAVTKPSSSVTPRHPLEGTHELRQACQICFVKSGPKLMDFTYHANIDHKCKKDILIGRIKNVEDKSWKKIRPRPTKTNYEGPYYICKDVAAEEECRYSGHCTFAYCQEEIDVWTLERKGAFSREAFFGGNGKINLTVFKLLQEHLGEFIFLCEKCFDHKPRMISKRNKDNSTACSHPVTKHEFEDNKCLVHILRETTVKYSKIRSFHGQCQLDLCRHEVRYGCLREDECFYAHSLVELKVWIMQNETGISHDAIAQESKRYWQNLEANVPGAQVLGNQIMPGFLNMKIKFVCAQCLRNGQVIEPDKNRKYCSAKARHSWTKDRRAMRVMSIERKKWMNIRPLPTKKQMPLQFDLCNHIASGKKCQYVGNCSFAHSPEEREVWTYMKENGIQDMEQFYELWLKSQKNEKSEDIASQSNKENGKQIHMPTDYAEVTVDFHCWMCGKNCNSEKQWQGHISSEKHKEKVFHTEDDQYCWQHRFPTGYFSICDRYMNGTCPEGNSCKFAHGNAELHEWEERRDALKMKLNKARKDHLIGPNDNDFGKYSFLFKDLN
# UniProt Q9BYJ9: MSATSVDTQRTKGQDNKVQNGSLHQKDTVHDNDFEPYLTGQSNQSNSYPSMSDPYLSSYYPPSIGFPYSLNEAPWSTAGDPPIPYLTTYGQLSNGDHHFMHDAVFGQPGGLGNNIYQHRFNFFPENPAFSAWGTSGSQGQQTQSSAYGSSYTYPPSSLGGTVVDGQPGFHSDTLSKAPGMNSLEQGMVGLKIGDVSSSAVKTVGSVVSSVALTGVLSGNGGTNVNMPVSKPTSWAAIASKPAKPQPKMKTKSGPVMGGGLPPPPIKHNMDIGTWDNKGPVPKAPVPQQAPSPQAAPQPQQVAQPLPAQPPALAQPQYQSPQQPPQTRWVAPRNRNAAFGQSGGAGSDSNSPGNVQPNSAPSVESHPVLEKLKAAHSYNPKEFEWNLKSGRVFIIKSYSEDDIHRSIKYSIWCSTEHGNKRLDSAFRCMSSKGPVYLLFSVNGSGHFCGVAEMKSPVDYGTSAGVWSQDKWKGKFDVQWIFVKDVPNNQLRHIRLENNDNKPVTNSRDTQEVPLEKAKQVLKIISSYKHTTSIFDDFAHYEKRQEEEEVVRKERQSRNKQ
# UniProt Q96DA0: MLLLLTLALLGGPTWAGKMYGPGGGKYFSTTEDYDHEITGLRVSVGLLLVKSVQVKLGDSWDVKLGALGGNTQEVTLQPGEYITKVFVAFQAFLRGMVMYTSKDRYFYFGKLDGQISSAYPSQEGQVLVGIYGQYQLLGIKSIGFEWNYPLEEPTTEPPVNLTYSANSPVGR
# Assays:
# Test in all cases: log2 fold change, soluble protein after heating vs DMSO (PISA); higher = thermal stabilisation; K562 lysate, 10 uM; active = over 0.2 and 3.5 SD of the protein, either way, in both replicates (recomputed)
# [1] = compound: C1=CC=C(C=C1)[C@H](COC2=CC3=C(C=C2)NC(=O)N3)NC(=O)C4=CC=CN(C4=O)CC5=CC(=C(C=C5)F)F
# In short: (§1)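 Pellets of K562 cells were dounce-homogenised in PBS pH 7.4 with 1 mM MgCl2, and the crude extract was held at 1 mg/mL protein for a 30 min treatment with 10 μM compound. Aliquots were heated for 3 min over 48°C-58°C and pooled before NP-40 was added to 0.5% at 4°C. The supernatant from 21,000xg for 90 min was quantified by TMTpro 16plex LC-MS/MS with channel sums equalised. Values are reported from duplicates as log-two fold change in thermal stability relative to solvent controls.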
# [2] = compound: CC1=C(SC2=C1C(=N[C@H](C3=NN=C(N32)C)CC(=O)N)C4=CC=C(C=C4)Cl)C
# In short: as §1
# [3] = compound: CC1=C2C(=CC=C1)N=C(N(C2=O)C3=CC=CC=C3C)CN4C=NC5=C(N=CN=C54)N
# In short: as §1
# [4] = compound: Cc1sc2c(c1C)C(c1ccc(Cl)cc1)=N[C@@H](CC(=O)OC(C)(C)C)c1nnc(C)n1-2
# In short: as §1
# [5] = compound: c1ccc([C@@H]2C[C@H]2NC2CCNCC2)cc1
# In short: as §1
Target,log2 fold change [1],log2 fold change [2],log2 fold change [3],log2 fold change [4],log2 fold change [5]
ZBTB2 (UniProt Q8N680),inactive: 0.117,inactive: 0.054,inactive: -0.002,inactive: 0.038,inactive: 0.021
YOD1 (UniProt Q5VVQ6),inactive: 0.005,inactive: -0.004,inactive: 0.019,inactive: -0.039,inactive: -0.024
YRDC (UniProt Q86U90),inactive: -0.009,inactive: 0.02,inactive: -0.046,inactive: -0.029,inactive: -0.053
ZFYVE19 isoform 3 (UniProt Q96K21),inactive: 0.062,inactive: -0.075,,,
ZEB2 (UniProt O60315),inactive: 0.064,inactive: 0.049,inactive: 0.128,inactive: 0.045,
YKT6 (UniProt O15498),inactive: 0.012,inactive: -0.01,inactive: 0.019,inactive: -0.009,inactive: 0.036
XPO7 (UniProt Q9UIA9),inactive: -0.024,inactive: 0.021,inactive: 0.04,inactive: -0.016,inactive: -0.002
ZFR (UniProt Q96KR1),inactive: 0.047,inactive: -0.043,inactive: 0.001,inactive: -0.014,inactive: -0.034
ZFYVE26 (UniProt Q68DK2),inactive: -0.033,inactive: 0.082,inactive: 0.14,,
YWHAE (UniProt P62258),inactive: 0.032,inactive: -0.013,inactive: 0.012,inactive: -0.023,inactive: -0.014
ZDHHC18 (UniProt Q9NUE0),inactive: 0.103,inactive: 0.115,inactive: 0.075,inactive: -0.072,inactive: 0.043
ZFYVE9 (UniProt O95405),inactive: 0.034,inactive: 0.039,inactive: -0.002,inactive: -0.032,inactive: 0.008
YIF1B (UniProt Q5BJH7),inactive: -0.008,inactive: 0.005,inactive: 0.059,inactive: -0.024,inactive: 0.044
ZDHHC13 (UniProt Q8IUH4),inactive: 0.044,inactive: 0.223,inactive: -0.003,inactive: -0.029,inactive: 0.101
YJU2 (UniProt Q9BW85),inactive: 0.021,inactive: 0.033,inactive: -0.027,inactive: -0.009,inactive: -0.004
YES1 (UniProt P07947),inactive: -0.068,inactive: -0.099,inactive: 0.009,inactive: -0.045,inactive: 0
YME1L1 (UniProt Q96TA2),inactive: 0.004,inactive: -0.021,inactive: 0.032,inactive: -0.008,inactive: 0.002
YIPF3 (UniProt Q9GZM5),inactive: 0.01,inactive: -0.021,inactive: -0.007,inactive: -0.023,inactive: -0.008
XRCC4 (UniProt Q13426),inactive: 0.021,inactive: -0.024,inactive: 0,inactive: 0.021,inactive: -0.045

# A second format for some results above:
Target	log2 fold change [1]	log2 fold change [2]	log2 fold change [3]	log2 fold change [4]	log2 fold change [5]
ZFYVE19 isoform 3 (UniProt Q96K21)	inactive: 0.062	inactive: -0.075			
ZEB2 (UniProt O60315)	inactive: 0.064	inactive: 0.049	inactive: 0.128	inactive: 0.045	

# Further results:

Target,log2 fold change [1],log2 fold change [2],log2 fold change [3],log2 fold change [4],log2 fold change [5]
YTHDC2 (UniProt Q9H6S0),inactive: 0.004,inactive: -0.018,inactive: -0.078,inactive: -0.002,inactive: 0.058
YWHAG (UniProt P61981),inactive: 0.038,inactive: 0.001,inactive: -0.02,inactive: 0.018,inactive: -0.034
ZC3H14 (UniProt Q6PJT7),inactive: -0.008,inactive: -0.007,inactive: -0.031,inactive: -0.05,inactive: -0.057
YIPF6 (UniProt Q96EC8),inactive: 0.023,inactive: 0,inactive: 0.03,inactive: -0.07,inactive: 0.037
ZADH2 (UniProt Q8N4Q0),inactive: -0.02,inactive: -0.031,inactive: 0.018,inactive: -0.183,inactive: 0.028
XPO1 (UniProt O14980),inactive: -0.024,inactive: 0.023,inactive: 0.012,inactive: 0.008,inactive: 0.023
ZC3H7B (UniProt Q9UGR2),inactive: 0.063,inactive: -0.056,inactive: -0.084,inactive: 0.011,inactive: 0.043
YWHAZ (UniProt P63104),inactive: 0.008,inactive: -0.015,inactive: -0.018,inactive: -0.012,inactive: -0.015
YAF2 isoform 5 (UniProt Q8IY57),inactive: 0.108,inactive: -0.086,inactive: -0.238,inactive: 0.054,inactive: 0.033
YAE1 (UniProt Q9NRH1),inactive: 0.079,inactive: -0.012,inactive: -0.063,inactive: -0.015,inactive: -0.013
XPO4 (UniProt Q9C0E2),inactive: 0.004,inactive: -0.011,inactive: 0.005,inactive: -0.043,inactive: -0.02
ZER1 (UniProt Q7Z7L7),inactive: -0.058,inactive: -0.053,inactive: 0.057,inactive: -0.085,inactive: -0.091
ZEB1 isoform 2 (UniProt P37275),inactive: -0.518,inactive: -0.056,inactive: 0.027,inactive: -0.083,inactive: -0.049
XPO6 (UniProt Q96QU8),inactive: -0.053,inactive: 0.057,inactive: 0.023,inactive: 0.039,inactive: -0.045
YTHDC1 (UniProt Q96MU7),inactive: 0.034,inactive: -0.06,inactive: 0.186,inactive: -0.103,inactive: -0.047
ZCCHC3 (UniProt Q9NUD5),inactive: -0.006,inactive: -0.034,inactive: -0.027,inactive: -0.013,inactive: -0.005
ZC3H7A (UniProt Q8IWR0),inactive: -0.007,inactive: -0.023,inactive: 0.003,inactive: -0.053,inactive: 0.199
XRN1 (UniProt Q8IZH2),inactive: -0.022,inactive: -0.117,inactive: -0.093,inactive: 0.162,inactive: 0.089
ZDHHC20 (UniProt Q5W0Z9),inactive: 0.05,inactive: 0.099,inactive: 0.053,inactive: 0.055,inactive: -0.084

Target,log2 fold change [1],log2 fold change [2],log2 fold change [3],log2 fold change [4],log2 fold change [5]
ZC2HC1A (UniProt Q96GY0),inactive: 0.059,inactive: -0.046,inactive: -0.018,inactive: 0.106,inactive: -0.058
YWHAZ (UniProt E7ESK7),inactive: -0.124,inactive: 0.465,inactive: -0.043,inactive: 0.127,inactive: -0.099
YARS (UniProt P54577),inactive: -0.029,inactive: 0.009,inactive: -0.005,inactive: 0.013,inactive: 0.052
YTHDF1 (UniProt Q9BYJ9),inactive: -0.031,inactive: -0.053,inactive: 0.106,inactive: 0.003,inactive: -0.097
ZBTB33 (UniProt Q86T24),inactive: 0.046,inactive: -0.082,inactive: 0.003,inactive: 0,inactive: -0.015
ZC3HC1 (UniProt Q86WB0),inactive: 0.002,inactive: 0.045,inactive: 0.006,inactive: 0.019,inactive: 0.061
ZFC3H1 (UniProt O60293),inactive: -0.042,inactive: 0.003,inactive: 0.069,inactive: 0.017,inactive: 0.089
XXYLT1 (UniProt Q8NBI6),inactive: 0.028,inactive: 0.033,inactive: 0.034,inactive: 0.008,inactive: 0.012
ZBTB7A (UniProt O95365),inactive: 0.285,inactive: -0.07,inactive: 0.072,inactive: 0.007,inactive: 0.058
ZCCHC17 (UniProt Q9NP64),inactive: 0.011,inactive: -0.046,inactive: -0.113,inactive: -0.024,inactive: -0.004
YBX3 isoform 2 (UniProt P16989),inactive: 0.092,inactive: -0.039,inactive: 0.051,inactive: -0.151,inactive: -0.023
YEATS4 (UniProt O95619),inactive: -0.014,inactive: 0.05,inactive: -0.029,inactive: 0.046,inactive: 0.25
ZG16B (UniProt Q96DA0),inactive: -0.424,inactive: -0.206,,,inactive: -0.19
ZFP92 (UniProt A6NM28),,,inactive: 0.105,,
ZCCHC7 (UniProt Q8N3Z6),,,,inactive: -0.023,
ZBTB11 (UniProt O95625),,,inactive: -0.059,,inactive: -0.123
YIPF2 (UniProt Q9BWQ6),,,,,inactive: 0.01
ZBTB40 (UniProt Q9NUA8),,,inactive: -0.06,inactive: -0.004,active: -0.432
ZC3H10 (UniProt Q96K80),inactive: 0.043,inactive: -0.081,,inactive: -0.017,

# — the supplement of paper PMC10849652
